Experimental data reported in the supplement of paper PMC12819154, “High-throughput peptide-centric local stability assay extends protein–ligand identification to membrane proteins, tissues and bacteria” (Nature Structural & Molecular Biology, 2025).
Some of the results follow. Most entries show no effect beyond the scatter of the controls.

The chains behind the UniProt entries cited, without tags or fusion partners. Where a name states a change or a piece, a line headed by the entry shows the natural chain unless it says otherwise.
UniProt O43325: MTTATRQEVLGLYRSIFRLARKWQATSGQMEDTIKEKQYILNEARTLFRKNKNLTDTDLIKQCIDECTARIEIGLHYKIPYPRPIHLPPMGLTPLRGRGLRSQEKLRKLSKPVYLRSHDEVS
UniProt O43309: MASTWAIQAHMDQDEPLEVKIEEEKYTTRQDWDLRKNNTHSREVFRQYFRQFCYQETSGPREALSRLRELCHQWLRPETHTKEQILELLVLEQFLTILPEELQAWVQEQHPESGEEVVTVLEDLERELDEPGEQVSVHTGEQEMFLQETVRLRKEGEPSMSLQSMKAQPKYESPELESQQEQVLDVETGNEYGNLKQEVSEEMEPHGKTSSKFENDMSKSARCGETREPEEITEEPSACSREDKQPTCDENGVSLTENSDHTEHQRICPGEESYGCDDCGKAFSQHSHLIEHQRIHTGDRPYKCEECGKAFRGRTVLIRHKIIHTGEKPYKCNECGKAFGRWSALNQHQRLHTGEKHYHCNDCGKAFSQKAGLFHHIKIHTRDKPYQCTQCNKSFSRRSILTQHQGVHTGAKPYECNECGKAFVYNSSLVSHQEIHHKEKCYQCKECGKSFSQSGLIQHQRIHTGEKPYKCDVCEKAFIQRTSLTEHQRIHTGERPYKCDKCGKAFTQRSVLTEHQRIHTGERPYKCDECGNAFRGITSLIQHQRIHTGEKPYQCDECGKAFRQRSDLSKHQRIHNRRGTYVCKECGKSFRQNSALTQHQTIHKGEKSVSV
UniProt O60658: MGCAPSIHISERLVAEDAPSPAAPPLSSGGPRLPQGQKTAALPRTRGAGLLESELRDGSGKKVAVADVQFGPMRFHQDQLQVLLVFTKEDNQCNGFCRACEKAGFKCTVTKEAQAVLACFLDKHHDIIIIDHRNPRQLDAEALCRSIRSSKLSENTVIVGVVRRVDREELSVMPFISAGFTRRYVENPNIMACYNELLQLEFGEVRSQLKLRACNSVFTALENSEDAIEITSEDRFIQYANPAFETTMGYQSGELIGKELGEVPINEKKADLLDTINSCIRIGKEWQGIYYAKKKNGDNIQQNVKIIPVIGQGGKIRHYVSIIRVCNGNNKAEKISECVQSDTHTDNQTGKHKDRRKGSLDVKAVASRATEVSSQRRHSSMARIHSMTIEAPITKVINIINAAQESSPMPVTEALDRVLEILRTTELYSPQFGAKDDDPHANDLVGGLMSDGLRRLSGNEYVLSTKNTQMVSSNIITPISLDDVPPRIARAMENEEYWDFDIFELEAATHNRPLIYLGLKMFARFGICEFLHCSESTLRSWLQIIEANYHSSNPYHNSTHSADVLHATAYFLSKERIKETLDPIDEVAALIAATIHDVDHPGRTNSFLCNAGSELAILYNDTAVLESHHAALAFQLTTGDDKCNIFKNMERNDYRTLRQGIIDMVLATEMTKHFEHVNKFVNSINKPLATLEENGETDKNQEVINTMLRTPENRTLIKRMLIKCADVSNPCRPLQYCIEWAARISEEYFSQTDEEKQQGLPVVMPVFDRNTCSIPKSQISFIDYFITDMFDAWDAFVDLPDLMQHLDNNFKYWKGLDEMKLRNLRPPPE
UniProt O43427: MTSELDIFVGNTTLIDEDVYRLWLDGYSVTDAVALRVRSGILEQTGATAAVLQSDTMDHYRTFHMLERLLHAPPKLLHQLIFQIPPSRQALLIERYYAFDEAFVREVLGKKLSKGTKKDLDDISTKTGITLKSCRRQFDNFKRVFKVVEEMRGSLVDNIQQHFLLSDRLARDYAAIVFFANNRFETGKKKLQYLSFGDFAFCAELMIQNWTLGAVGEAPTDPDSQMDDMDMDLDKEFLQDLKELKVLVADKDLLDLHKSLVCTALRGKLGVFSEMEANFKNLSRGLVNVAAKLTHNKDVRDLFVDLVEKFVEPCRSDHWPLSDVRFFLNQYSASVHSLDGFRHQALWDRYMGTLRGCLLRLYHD
UniProt O43824: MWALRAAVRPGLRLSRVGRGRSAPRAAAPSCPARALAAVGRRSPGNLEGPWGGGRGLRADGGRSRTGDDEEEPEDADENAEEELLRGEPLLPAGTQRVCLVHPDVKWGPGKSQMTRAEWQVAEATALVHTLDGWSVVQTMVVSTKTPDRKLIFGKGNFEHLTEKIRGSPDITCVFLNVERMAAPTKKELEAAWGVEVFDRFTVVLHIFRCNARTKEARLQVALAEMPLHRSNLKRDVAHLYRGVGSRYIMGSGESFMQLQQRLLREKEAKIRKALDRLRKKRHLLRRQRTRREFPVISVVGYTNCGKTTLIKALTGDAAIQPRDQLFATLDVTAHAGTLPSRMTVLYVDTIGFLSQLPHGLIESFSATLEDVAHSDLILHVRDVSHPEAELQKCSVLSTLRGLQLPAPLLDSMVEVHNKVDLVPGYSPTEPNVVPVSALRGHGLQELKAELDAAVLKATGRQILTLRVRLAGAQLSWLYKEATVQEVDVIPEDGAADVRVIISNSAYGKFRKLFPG
UniProt O43402: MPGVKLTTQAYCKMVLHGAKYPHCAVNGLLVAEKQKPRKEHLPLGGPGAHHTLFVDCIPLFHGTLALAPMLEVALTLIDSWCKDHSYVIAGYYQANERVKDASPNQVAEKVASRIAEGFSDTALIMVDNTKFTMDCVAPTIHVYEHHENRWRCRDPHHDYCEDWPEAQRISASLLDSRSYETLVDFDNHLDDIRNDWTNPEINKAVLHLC
UniProt O75330: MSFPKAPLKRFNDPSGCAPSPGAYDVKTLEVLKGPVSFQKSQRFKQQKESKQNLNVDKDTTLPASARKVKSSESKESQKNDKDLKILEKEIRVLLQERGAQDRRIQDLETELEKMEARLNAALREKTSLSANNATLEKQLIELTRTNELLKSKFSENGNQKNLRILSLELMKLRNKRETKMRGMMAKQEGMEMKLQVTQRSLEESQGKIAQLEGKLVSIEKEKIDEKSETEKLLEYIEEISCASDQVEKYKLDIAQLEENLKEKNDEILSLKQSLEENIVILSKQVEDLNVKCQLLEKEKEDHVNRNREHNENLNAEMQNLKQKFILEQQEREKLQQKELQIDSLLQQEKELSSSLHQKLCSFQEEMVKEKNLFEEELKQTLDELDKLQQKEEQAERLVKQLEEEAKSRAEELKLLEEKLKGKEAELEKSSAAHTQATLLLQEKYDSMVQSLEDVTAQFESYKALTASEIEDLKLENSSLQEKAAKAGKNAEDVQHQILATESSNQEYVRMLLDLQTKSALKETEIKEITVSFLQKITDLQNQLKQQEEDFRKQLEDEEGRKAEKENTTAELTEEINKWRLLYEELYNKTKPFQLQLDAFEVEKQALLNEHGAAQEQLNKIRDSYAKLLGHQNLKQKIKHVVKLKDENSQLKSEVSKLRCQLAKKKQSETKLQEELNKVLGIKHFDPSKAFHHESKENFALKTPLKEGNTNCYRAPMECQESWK
UniProt O60303: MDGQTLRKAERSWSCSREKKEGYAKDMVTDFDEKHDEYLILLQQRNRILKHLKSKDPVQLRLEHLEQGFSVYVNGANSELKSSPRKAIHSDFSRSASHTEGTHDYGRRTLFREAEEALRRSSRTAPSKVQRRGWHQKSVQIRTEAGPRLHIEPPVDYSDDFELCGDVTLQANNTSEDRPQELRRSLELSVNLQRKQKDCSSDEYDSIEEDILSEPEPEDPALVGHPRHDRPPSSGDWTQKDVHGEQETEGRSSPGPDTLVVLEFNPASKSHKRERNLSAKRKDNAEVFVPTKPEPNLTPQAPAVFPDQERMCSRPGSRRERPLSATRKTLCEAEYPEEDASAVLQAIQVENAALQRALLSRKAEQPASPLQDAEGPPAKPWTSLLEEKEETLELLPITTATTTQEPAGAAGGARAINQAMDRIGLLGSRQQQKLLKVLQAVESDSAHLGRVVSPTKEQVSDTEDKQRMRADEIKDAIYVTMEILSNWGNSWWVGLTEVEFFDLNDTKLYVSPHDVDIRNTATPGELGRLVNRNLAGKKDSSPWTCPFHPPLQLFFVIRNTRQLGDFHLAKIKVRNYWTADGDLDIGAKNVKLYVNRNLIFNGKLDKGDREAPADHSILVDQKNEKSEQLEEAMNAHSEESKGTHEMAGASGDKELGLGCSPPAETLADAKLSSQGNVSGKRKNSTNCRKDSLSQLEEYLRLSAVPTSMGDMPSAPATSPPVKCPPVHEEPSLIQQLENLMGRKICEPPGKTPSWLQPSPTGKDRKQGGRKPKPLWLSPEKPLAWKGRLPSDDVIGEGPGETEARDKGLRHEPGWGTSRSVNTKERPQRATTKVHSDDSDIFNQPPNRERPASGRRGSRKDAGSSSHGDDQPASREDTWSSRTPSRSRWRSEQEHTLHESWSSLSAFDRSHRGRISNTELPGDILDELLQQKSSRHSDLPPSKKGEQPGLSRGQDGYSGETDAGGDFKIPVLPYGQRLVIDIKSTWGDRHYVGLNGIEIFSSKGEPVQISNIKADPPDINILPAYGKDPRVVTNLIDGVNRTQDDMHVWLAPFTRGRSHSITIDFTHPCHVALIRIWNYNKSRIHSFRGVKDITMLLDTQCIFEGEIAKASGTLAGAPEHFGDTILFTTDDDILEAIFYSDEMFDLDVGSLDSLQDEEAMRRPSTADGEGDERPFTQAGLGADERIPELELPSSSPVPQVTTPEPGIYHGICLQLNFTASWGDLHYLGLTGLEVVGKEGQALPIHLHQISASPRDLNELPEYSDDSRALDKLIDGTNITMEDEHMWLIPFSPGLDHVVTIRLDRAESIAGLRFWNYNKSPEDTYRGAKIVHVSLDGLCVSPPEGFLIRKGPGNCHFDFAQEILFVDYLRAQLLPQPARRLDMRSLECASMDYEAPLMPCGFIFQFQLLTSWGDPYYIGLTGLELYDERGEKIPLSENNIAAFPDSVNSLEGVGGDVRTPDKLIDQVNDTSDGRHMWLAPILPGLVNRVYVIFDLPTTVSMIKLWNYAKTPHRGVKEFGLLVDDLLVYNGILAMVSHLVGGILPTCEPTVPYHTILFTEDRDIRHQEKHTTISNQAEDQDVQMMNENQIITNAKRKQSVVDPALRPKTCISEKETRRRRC
UniProt O60220: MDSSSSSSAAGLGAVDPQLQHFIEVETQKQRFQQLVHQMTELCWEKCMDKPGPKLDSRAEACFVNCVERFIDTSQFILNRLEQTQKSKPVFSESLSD
UniProt O60264, whole entry: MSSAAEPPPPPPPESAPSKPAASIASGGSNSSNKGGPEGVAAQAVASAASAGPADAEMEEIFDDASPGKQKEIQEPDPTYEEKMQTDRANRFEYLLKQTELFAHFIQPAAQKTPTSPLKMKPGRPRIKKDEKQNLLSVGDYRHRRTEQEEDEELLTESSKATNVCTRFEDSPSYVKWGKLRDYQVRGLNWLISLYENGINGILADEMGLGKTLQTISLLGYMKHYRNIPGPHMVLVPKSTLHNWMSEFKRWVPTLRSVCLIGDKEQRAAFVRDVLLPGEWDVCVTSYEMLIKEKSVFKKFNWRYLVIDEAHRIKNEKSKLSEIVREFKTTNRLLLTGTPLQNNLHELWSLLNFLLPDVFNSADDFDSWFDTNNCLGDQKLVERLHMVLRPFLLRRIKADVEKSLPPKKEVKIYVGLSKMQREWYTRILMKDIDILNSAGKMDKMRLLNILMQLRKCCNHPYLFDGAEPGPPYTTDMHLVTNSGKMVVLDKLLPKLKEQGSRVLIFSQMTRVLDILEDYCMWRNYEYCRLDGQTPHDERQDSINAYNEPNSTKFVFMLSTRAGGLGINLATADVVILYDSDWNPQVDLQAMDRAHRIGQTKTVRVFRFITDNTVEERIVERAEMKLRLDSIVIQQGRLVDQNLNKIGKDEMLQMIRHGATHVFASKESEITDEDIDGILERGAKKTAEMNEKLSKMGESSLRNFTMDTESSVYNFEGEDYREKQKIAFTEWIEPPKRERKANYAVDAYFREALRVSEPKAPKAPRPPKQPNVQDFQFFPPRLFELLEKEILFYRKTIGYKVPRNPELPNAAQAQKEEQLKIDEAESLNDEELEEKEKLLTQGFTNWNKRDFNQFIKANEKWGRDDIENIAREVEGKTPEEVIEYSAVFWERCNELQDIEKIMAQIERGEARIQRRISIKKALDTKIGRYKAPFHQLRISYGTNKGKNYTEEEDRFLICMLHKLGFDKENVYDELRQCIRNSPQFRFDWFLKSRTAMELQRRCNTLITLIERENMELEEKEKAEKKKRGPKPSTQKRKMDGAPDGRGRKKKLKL
UniProt O43583: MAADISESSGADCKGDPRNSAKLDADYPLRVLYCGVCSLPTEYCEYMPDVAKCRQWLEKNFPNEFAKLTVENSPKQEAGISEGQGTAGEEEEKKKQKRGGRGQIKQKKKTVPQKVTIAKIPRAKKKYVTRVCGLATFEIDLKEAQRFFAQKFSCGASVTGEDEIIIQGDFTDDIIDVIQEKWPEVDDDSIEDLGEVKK

These targets were tested with CN[C@@H]1C[C@H]2O[C@@](C)([C@@H]1OC)n1c3ccccc3c3c4c(c5c6ccccc6n2c5c31)C(=O)NC4 [staurosporine] (assay: log2 fold change of tryptic peptide abundance, ligand vs vehicle (limited proteolysis) (log2 ratio); higher = more trypsin-susceptible (destabilized)). Conditions: ligand concentration: 20 uM; sample: K562 cleared lysate; digestion: 4 min, 22 C (HT-PELSA RT4min, Orbitrap Astral).

Which log2 fold change does the source give for “BCAS1 (peptide sequence: EAKPEAPAAK, peptide start residue: 83) (UniProt O75363)” here?
The log2 fold change was 0.357.

How did the log2 fold change turn out when “LYRM1 (peptide sequence: KLSKPVYLR, peptide start residue: 108) (UniProt O43325)” was run?
The log2 fold change was 0.483.

For “HTRA2 (peptide sequence: EPSFPDVQHGVLIHK, peptide start residue: 381) (UniProt O43464)”, which log2 fold change is on record?
Its log2 fold change is 0.643.

How did the log2 fold change turn out when “UniProt O43309 (peptide sequence: AFSQHSHLIEHQR, peptide start residue: 282)” was run?
Its log2 fold change is 0.103.

Which log2 fold change does the source give for “STRN (peptide sequence: KALPDSGEDRDTK, peptide start residue: 270) (UniProt O43815)” here?
The log2 fold change was -0.524.

With “ZW10 (peptide sequence: NLMTSEIHNTVK, peptide start residue: 413) (UniProt O43264)” as the target, how does the log2 fold change read?
The log2 fold change was 0.224.

With “PRICKLE3 (peptide sequence: QIGGGDIAVFASR, peptide start residue: 192) (UniProt O43900)” as the target, how does the log2 fold change read?
Its log2 fold change is 0.705.

For “DNAJC13 (peptide sequence: YHPDKNPEGR, peptide start residue: 1331) (UniProt O75165)”, which log2 fold change is on record?
The log2 fold change was 0.213.

With “PDE8A (peptide sequence: IIPVIGQGGK, peptide start residue: 306) (UniProt O60658)” as the target, how does the log2 fold change read?
Its log2 fold change is -0.208.

Which log2 fold change does the source give for “FIBP (peptide sequence: LWLDGYSVTDAVALR, peptide start residue: 22) (UniProt O43427)” here?
The log2 fold change was 0.499.

“GTPBP6 (peptide sequence: FTVVLHIFR, peptide start residue: 201) (UniProt O43824)” was tested. Which log2 fold change did it give?
Its log2 fold change is 0.467.

For “UniProt O43402 (peptide sequence: DASPNQVAEK, peptide start residue: 101)”, which log2 fold change is on record?
The log2 fold change was 0.193.

How did the log2 fold change turn out when “ZZEF1 (peptide sequence: AVDTDMIILPCLSRPAR, peptide start residue: 2536) (UniProt O43149)” was run?
The log2 fold change was -0.231.

How did the log2 fold change turn out when “HMMR (peptide sequence: LDIAQLEENLKEKNDEILSLK, peptide start residue: 252) (UniProt O75330)” was run?
The log2 fold change was 0.642.

Which log2 fold change does the source give for “KIAA0556 (peptide sequence: SEQLEEAMNAHSEESK, peptide start residue: 626) (UniProt O60303)” here?
The log2 fold change was 0.218.

How did the log2 fold change turn out when “MED14 (peptide sequence: KLSDDPCPVESKK, peptide start residue: 615) (UniProt O60244)” was run?
The log2 fold change was 0.612.

For “ANKRD17 (peptide sequence: NSASVQNSSVAVLSVNHIK, peptide start residue: 2191) (UniProt O75179)”, which log2 fold change is on record?
The log2 fold change was -0.263.

For “UniProt O75123 (peptide sequence: NHILNSDLLLLQR, peptide start residue: 103)”, which log2 fold change is on record?
Its log2 fold change is 0.3.

Which log2 fold change does the source give for “XPOT (peptide sequence: YKYSELTTVQQQLIR, peptide start residue: 66) (UniProt O43592)” here?
Its log2 fold change is 0.628.

With “TIMM8A (peptide sequence: SKPVFSESLSD, peptide start residue: 87) (UniProt O60220)” as the target, how does the log2 fold change read?
Its log2 fold change is -0.016.

“SMARCA5 (peptide sequence: STLHNWMSEFKR, peptide start residue: 239) (UniProt O60264)” was tested. Which log2 fold change did it give?
Its log2 fold change is 0.154.

With “UniProt O43829 (peptide sequence: FEYLLYGHHR, peptide start residue: 265)” as the target, how does the log2 fold change read?
Its log2 fold change is 0.192.

How did the log2 fold change turn out when “ZNF292 (peptide sequence: VSVISGPQNTR, peptide start residue: 1606) (UniProt O60281)” was run?
The log2 fold change was -0.108.

How did the log2 fold change turn out when “SDC3 (peptide sequence: ALPRPATTQEPDIPER, peptide start residue: 258) (UniProt O75056)” was run?
The log2 fold change was 0.0592.

With “TXNL1 (peptide sequence: IFINLPR, peptide start residue: 196) (UniProt O43396)” as the target, how does the log2 fold change read?
The log2 fold change was 0.114.

Which log2 fold change does the source give for “MCM3AP (peptide sequence: LAVVHFFDHASAALAR, peptide start residue: 473) (UniProt O60318)” here?
The log2 fold change was -0.463.

With “DENR (peptide sequence: VCGLATFEIDLKEAQR, peptide start residue: 131) (UniProt O43583)” as the target, how does the log2 fold change read?
Its log2 fold change is -0.637.

How did the log2 fold change turn out when “UniProt O75323 (peptide sequence: KDAHSNLLAK, peptide start residue: 58)” was run?
The log2 fold change was 0.632.
